Source: publication PMC6883508

Assays:
[1] = biological target: TaMAB2-TAP (Triticum aestivum (wheat)); assay: affinity purification with mass spectrometry; tandem affinity purification (IgG-Sepharose, AcTEV elution, calmodulin-agarose) of TAP-tagged bait from crude extracts of Arabidopsis cell suspension (three replicates) or 12-day old seedlings; 150 mM NaCl, 0.1% Nonidet P-40, 4°C; LC-MS/MS; SerRS-TAP as control bait
[2] = biological target: SerRS-TAP (Arabidopsis thaliana seryl-tRNA synthetase) (Arabidopsis thaliana); assay: as above

Row | Binder | binding [1] | binding [2]
1 | 30S ribosomal protein S9 (protein, UniProt Q9XJ27 53-208) TVSAPPEEEEIVELKKYVKSRLPGGFAAQKIIGTGRRKCAIARVVLQEGTGKVIINYRDAKEYLQGNPLWLQYVKVPLVTLGYENSYDIFVKAHGGGLSGQAQAITLGVARALLKVSADHRSPLKKEGLLTRDARVVERKKAGLKKARKAPQFSKR | binds | –
2 | AtCul3b, endogenous (protein, UniProt Q9C9L0 1-732) MSNQKKRNFQIEAFKQRVVVDPKYADKTWKILEHAIHEIYNHNASGLSFEELYRNAYNMVLHKYGDKLYTGLVTTMTFHLKEICKSIEEAQGGAFLELLNRKWNDHNKALQMIRDILMYMDRTYVSTTKKTHVHELGLHLWRDNVVYSSKIQTRLLNTLLDLVHKERTGEVIDRVLMRNVIKMFMDLGESVYQDDFEKPFLEASAEFYKVESMEFIESCDCGEYLKKAEKPLVEEVERVVNYLDAKSEAKITSVVEREMIANHVQRLVHMENSGLVNMLLNDKYEDMGRMYSLFRRVANGLVTVRDVMTLHLREMGKQLVTDPEKSKDPVEFVQRLLDERDKYDRIINMAFNNDKTFQNALNSSFEYFVNLNTRSPEFISLFVDDKLRKGLKGVGEEDVDLILDKVMMLFRYLQEKDVFEKYYKQHLAKRLLSGKTVSDDAERNLIVKLKTECGYQFTSKLEGMFTDMKTSHDTLLGFYNSHPELSEGPTLVVQVLTTGSWPTQPTIQCNLPAEVSVLCEKFRSYYLGTHTGRRLSWQTNMGTADIKAVFGKGQKHELNVSTFQMCVLMLFNNSDRLSYKEIEQATEIPTPDLKRCLQSMACVKGKNVLRKEPMSKEIAEEDWFVVNDRFASKFYKVKIGTVVAQKETEPEKQETRQRVEEDRKPQIEAAIVRIMKSRRVLDHNNIIAEVTKQLQTRFLANPTEIKKRIESLIERDFLERDNTDRKLYRYLA | no binding | –
3 | AtCul3a, endogenous (protein, UniProt Q9ZVH4 1-732) MSNQKKRNFQIEAFKHRVVVDPKYADKTWQILERAIHQIYNQDASGLSFEELYRNAYNMVLHKFGEKLYTGFIATMTSHLKEKSKLIEAAQGGSFLEELNKKWNEHNKALEMIRDILMYMDRTYIESTKKTHVHPMGLNLWRDNVVHFTKIHTRLLNTLLDLVQKERIGEVIDRGLMRNVIKMFMDLGESVYQEDFEKPFLDASSEFYKVESQEFIESCDCGDYLKKSEKRLTEEIERVAHYLDAKSEEKITSVVEKEMIANHMQRLVHMENSGLVNMLLNDKYEDLGRMYNLFRRVTNGLVTVRDVMTSHLREMGKQLVTDPEKSKDPVEFVQRLLDERDKYDKIINTAFGNDKTFQNALNSSFEYFINLNARSPEFISLFVDDKLRKGLKGITDVDVEVILDKVMMLFRYLQEKDVFEKYYKQHLAKRLLSGKTVSDDAERSLIVKLKTECGYQFTSKLEGMFTDMKTSEDTMRGFYGSHPELSEGPTLIVQVLTTGSWPTQPAVPCNLPAEVSVLCEKFRSYYLGTHTGRRLSWQTNMGTADIKAIFGKGQKHELNVSTFQMCVLMLFNNSDRLSYKEIEQATEIPAADLKRCLQSLACVKGKNVIKKEPMSKDIGEEDLFVVNDKFTSKFYKVKIGTVVAQKETEPEKQETRQRVEEDRKPQIEAAIVRIMKSRKILDHNNIIAEVTKQLQPRFLANPTEIKKRIESLIERDFLERDSTDRKLYRYLA | no binding | –

Second part, the binder after the results:

Row | binding [1] | binding [2] | Binder
4 | binds | no binding | Eukaryotic translation initiation factor 3 subunit G (protein, UniProt F4J6A1 1-321) MTIDSQQKTSKFRWGEMDEDEDLDFLLPPKQVIGPDENGLKTTIEYKFNDEENKVKITTRTRVRKLASARLNKRAMERRNWPKFGDAANEEAGSHLTMVSTEEILLERPRAPGDQLANHMLASIPEYELKCALTFVAANCTKADESKATGDGLSQLGKGGAVLMVCRICHKKGDHWTSKCPYKDLAAPTDVFIDKPPTGESSTMSAAPGTGKAAYVPPSMRAGADRSAVGSDMRRRNDENSVRVTNLSEDTREPDLMELFHPFGAVTRVYVAIDQKTGVSRGFGFVNFVSREDAQRAINKLNGYGYDNLILRVEWATPRPT
5 | binds | no binding | Eukaryotic translation initiation factor 3 subunit A (protein, UniProt Q9LD55 1-987) MANFAKPENALKRADELINVGQKQDALQALHDLITSKRYRAWQKPLEKIMFKYLDLCVDLKRGRFAKDGLIQYRIVCQQVNVSSLEEVIKHFLHLATDKAEQARSQADALEEALDVDDLEADRKPEDLQLSIVSGEKGKDRSDRELVTPWFKFLWETYRTVLEILRNNSKLEALYAMTAHKAFQFCKQYKRTTEFRRLCEIIRNHLANLNKYRDQRDRPDLSAPESLQLYLDTRFDQLKVATELGLWQEAFRSVEDIYGLMCMVKKTPKSSLLMVYYSKLTEIFWISSSHLYHAYAWFKLFSLQKNFNKNLSQKDLQLIASSVVLAALSIPPFDRAQSASHMELENEKERNLRMANLIGFNLEPKFEGKDMLSRSALLSELVSKGVLSCASQEVKDLFHVLEHEFHPLDLGSKIQPLLEKISKSGGKLSSAPSLPEVQLSQYVPSLEKLATLRLLQQVSKIYQTIRIESLSQLVPFFQFSEVEKISVDAVKNNFVAMKVDHMKGVVIFGNLGIESDGLRDHLAVFAESLSKVRAMLYPVPSKASKLAGVIPNLADTVEKEHKRLLARKSIIEKRKEDQERQQLEMEREEEQKRLKLQKLTEEAEQKRLAAELAERRKQRILREIEEKELEEAQALLEETEKRMKKGKKKPLLDGEKVTKQSVKERALTEQLKERQEMEKKLQKLAKTMDYLERAKREEAAPLIEAAYQRRLVEEREFYEREQQREVELSKERHESDLKEKNRLSRMLGNKEIFQAQVISRRQAEFDRIRTEREERISKIIREKKQERDIKRKQIYYLKIEEERIRKLQEEEEARKQEEAERLKKVEAERKANLDKAFEKQRQREIELEEKSRREREELLRGTNAPPARLAEPTVTPVGTTAPAAAAAAAGAPAAPYVPKWKRQTTEVSGPSAPTSSETDRRSNRGPPPGDDHWGSNRGAAQNTDRWTSNRERSGPPAEGGDRWGSGPRGSDDRRSTFGSSRPRPTQR

Results are given in words; binding and its absence hold for the method and conditions named. In cells and extracts the contact can be indirect. These calls come from enrichment with a bait or labelling near it, and not all partners need be listed. No binding means not detected with the bait.
